Amino acid sequences for entries named in this document (tags omitted).
UniProt P53297: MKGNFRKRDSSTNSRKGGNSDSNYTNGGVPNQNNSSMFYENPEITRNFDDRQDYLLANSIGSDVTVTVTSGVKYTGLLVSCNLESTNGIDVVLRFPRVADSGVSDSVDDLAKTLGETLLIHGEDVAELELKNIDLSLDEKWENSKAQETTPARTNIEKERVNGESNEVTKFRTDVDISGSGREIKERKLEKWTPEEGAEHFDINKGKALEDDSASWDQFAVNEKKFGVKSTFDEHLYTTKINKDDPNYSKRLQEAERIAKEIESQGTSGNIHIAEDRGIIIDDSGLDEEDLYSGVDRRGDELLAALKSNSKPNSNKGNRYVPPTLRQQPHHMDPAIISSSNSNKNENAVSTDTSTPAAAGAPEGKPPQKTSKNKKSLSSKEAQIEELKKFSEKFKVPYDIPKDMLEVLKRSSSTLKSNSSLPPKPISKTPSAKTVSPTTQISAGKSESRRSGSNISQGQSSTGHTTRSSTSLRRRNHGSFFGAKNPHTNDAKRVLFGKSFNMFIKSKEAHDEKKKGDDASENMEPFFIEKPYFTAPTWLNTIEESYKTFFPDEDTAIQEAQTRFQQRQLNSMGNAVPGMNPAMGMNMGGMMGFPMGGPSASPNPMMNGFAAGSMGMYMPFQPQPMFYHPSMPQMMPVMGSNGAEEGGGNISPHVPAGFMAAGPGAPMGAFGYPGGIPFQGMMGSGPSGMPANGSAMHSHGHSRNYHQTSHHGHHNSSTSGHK

In paper PMC8782181:

B1: Rpc19 (protein, UniProt P28000 1-142)
chain: MTEDIEQKKTATEVTPQEPKHIQEEEEQDVDMTGDEEQEEEPDREKIKLLTQATSEDGTSASFQIVEEDHTLGNALRYVIMKNPDVEFCGYSIPHPSENLLNIRIQTYGETTAVDALQKGLKDLMDLCDVVESKFTEKIKSM
B2: Nam7 (protein, UniProt P30771 1-971)
chain: MVGSGSHTPYDISNSPSDVNVQPATQLNSTLVEDDDVDNQLFEEAQVTETGFRSPSASDNSCAYCGIDSAKCVIKCNSCKKWFCNTKNGTSSSHIVNHLVLSHHNVVSLHPDSDLGDTVLECYNCGRKNVFLLGFVSAKSEAVVVLLCRIPCAQTKNANWDTDQWQPLIEDRQLLSWVAEQPTEEEKLKARLITPSQISKLEAKWRSNKDATINDIDAPEEQEAIPPLLLRYQDAYEYQRSYGPLIKLEADYDKQLKESQALEHISVSWSLALNNRHLASFTLSTFESNELKVAIGDEMILWYSGMQHPDWEGRGYIVRLPNSFQDTFTLELKPSKTPPPTHLTTGFTAEFIWKGTSYDRMQDALKKFAIDKKSISGYLYYKILGHQVVDISFDVPLPKEFSIPNFAQLNSSQSNAVSHVLQRPLSLIQGPPGTGKTVTSATIVYHLSKIHKDRILVCAPSNVAVDHLAAKLRDLGLKVVRLTAKSREDVESSVSNLALHNLVGRGAKGELKNLLKLKDEVGELSASDTKRFVKLVRKTEAEILNKADVVCCTCVGAGDKRLDTKFRTVLIDESTQASEPECLIPIVKGAKQVILVGDHQQLGPVILERKAADAGLKQSLFERLISLGHVPIRLEVQYRMNPYLSEFPSNMFYEGSLQNGVTIEQRTVPNSKFPWPIRGIPMMFWANYGREEISANGTSFLNRIEAMNCERIITKLFRDGVKPEQIGVITPYEGQRAYILQYMQMNGSLDKDLYIKVEVASVDAFQGREKDYIILSCVRANEQQAIGFLRDPRRLNVGLTRAKYGLVILGNPRSLARNTLWNHLLIHFREKGCLVEGTLDNLQLCTVQLVRPQPRKTERPMNAQFNVESEMGDFPKFQDFDAQSMVSFSGQIGDFGNAFVDNTELSSYINNEYWNFENFKSAFSQKQNRNEIDDRNLYQEEASHLNSNFARELQREEQKHELSKDFSNLGI
B3: Mrh1 (protein, UniProt Q12117 1-320)
chain: MSTFETLIKRGGNEAIKINPPTGADFHITSRGSDWFWTCFCCYLLFGLILTFLMFRKPVNDRFFYLTGIAPNFFMCIAYFTMASNLGWIPVKAKYNHVQTSTQKEHPGYRQIFYSRFVGWFLALPWPIIQICMLAGTPFWQMAFNVCITEFFTVCWLIAACVHSTYKWGYYTIGLGAAIVVSISVMTTSYNLVKQRDNDIRLTFLVFFSIIMFLWIIAYPTCFGITDGGNVLQPDSAGIFYGIIDLILMCFIPTLLVPIANHFGADKLGYHFGPSDAEAVMAPKAPVASPRPAATPNLSKDKKKKSKKSKKSKKSKKSEE
B4: Smi1 (protein, UniProt P32566 1-505)
chain: MDLFKRKVKEWVYSLSTDDHYAEYNPDETPTFNMGKRLNSNNGQVNPSQMHLNSVDEEMSMGFQNGVPSNEDINIDEFTSTESNDGVSETLLAWRHIDFWTSEHNPDLNATLSDPCTQNDITHAEEDLEVSFPNPVKASFKIHDGQEDLESMTGTSGLFYGFQLMTLDQVVAMTQAWRNVAKNLNKRSQQGLSHVTSTGSSSSMERLNGNKFKLPNIPDQKSIPPNAVQPVYAHPAWIPLITDNAGNHIGVDLAPGPNGKYAQIITFGRDFDTKFVIAENWGEFLLSFANDLEAGNWYLVDDNDDYFSGDGELVFRDKKSNGPIQDYFEVLKRRTWIKYQENLRSQQQKSQPDTSLQEQKYVPASQKKVAAEQPSTLNAESIKGEDSGSADVQSVQDHESVKIVKTEPSEAETTTVNTESLGQAEHEIKADNVDIKQESERKEDEKQPKVEEKEHVENEHVTESAKKDDDVNKQTEEMNKKEENEIRSDDAKVEEAREEFENIAL
B5: Lsm4 (protein, UniProt P40070 1-187)
chain: MLPLYLLTNAKGQQMQIELKNGEIIQGILTNVDNWMNLTLSNVTEYSEESAINSEDNAESSKAVKLNEIYIRGTFIKFIKLQDNIIDKVKQQINSNNNSNSNGPGHKRYYNNRDSNNNRGNYNRRNNNNGNSNRRPYSQNRQYNNSNSSNINNSINSINSNNQNMNNGLGGSVQHHFNSSSPQKVEF
B6: Sro9 (protein, UniProt P25567 1-434)
chain: MSAETAAANTATAPVPEVQEQESSKSKQVNLTPAPLPTSSPWKLAPTEIPVSTISIEDLDATRKKKNRTPTPKSSTATKWVPIKASITVSGTKRSGSKNGASNGNSNKSKNNKTAASSTSSSNANRKKKHHQHNAKKQQQMKKDGFESAVGEEDSKDATSQENGQSTQQQQPPHHRNHHHSHHHNSNGPQRRKFHNSNNAGMPQNQGFPPQFKPYQGRNARNNNNNRSKYHNHFHHNQQHPQQPMVKLQQQFYPVQPVLMAINNIARQIEYYFSEENLTVDNYLRSKLSKDGFAPLSLISKFYRVVNMSFGGDTNLILAALREIVANEAATVNVAEGTLAAKEGDNVTGEAKEPSPLDKYFVRSKSWSNWLPETFETEINIEKELVGDALDQFMISLPPVPQQEEESSTELASQEQETKEDSAPVAAGESESSL
B7: eIF4G2 (protein, UniProt P39936 1-914)
chain: MTDQRGPPPPHPQQANGYKKFPPHDNQYSGANNSQPNNHYNENLYSAREPHNNKQYQSKNGKYGTNKYNNRNNSQGNAQYYNNRFNNGYRLNNNDYNPAMLPGMQWPANYYAPQMYYIPQQMVPVASPPYTHQPLNTNPEPPSTPKTTKIEITTKTGERLNLKKFHEEKKASKGEEKNDGVEQKSKSGTPFEKEATPVLPANEAVKDTLTETSNEKSTSEAENTKRLFLEQVRLRKAAMERKKNGLISETEKKQETSNHDNTDTTKPNSVIESEPIKEAPKPTGEANEVVIDGKSGASVKTPQHVTGSVTKSVTFNEPENESSSQDVDELVKDDDTTEISDTTGGKTVNKSDDETINSVITTEENTVKETEPSTSDIEMPTVSQLLETLGKAQPISDIYEFAYPENVERPDIKYKKPSVKYTYGPTFLLQFKDKLKFRPDPAWVEAVSSKIVIPPHIARNKPKDSGRFGGDFRSPSMRGMDHTSSSRVSSKRRSKRMGDDRRSNRGYTSRKDREKAAEKAEEQAPKEEIAPLVPSANRWIPKSRVKKTEKKLAPDGKTELFDKEEVERKMKSLLNKLTLEMFDSISSEILDIANQSKWEDDGETLKIVIEQIFHKACDEPHWSSMYAQLCGKVVKDLDPNIKDKENEGKNGPKLVLHYLVARCHEEFEKGWADKLPAGEDGNPLEPEMMSDEYYIAAAAKRRGLGLVRFIGYLYCLNLLTGKMMFECFRRLMKDLNNDPSEETLESVIELLNTVGEQFEHDKFVTPQATLEGSVLLDNLFMLLQHIIDGGTISNRIKFKLIDVKELREIKHWNSAKKDAGPKTIQQIHQEEEQLRQKKNSQRSNSRFNNHNQSNSNRYSSNRRNMQNTQRDSFASTKTGSFRNNQRNARKVEEVSQAPRANMFDALMNNDGDSD
B8: Fun12 (protein, UniProt P39730 1-1002)
chain: MAKKSKKNQQNYWDEEFEEDAAQNEEISATPTPNPESSAGADDTSREASASAEGAEAIEGDFMSTLKQSKKKQEKKVIEEKKDGKPILKSKKEKEKEKKEKEKQKKKEQAARKKAQQQAQKEKNKELNKQNVEKAAAEKAAAEKSQKSKGESDKPSASAKKPAKKVPAGLAALRRQLELKKQLEEQEKLEREEEERLEKEEEERLANEEKMKEEAKAAKKEKEKAKREKRKAEGKLLTRKQKEEKKLLERRRAALLSSGNVKVAGLAKKDGEENKPKKVVYSKKKKRTTQENASEAIKSDSKKDSEVVPDDELKESEDVLIDDWENLALGDDDEEGTNEETQESTASHENEDQNQGEEEEEGEEEEEEEEERAHVHEVAKSTPAATPAATPTPSSASPNKKDLRSPICCILGHVDTGKTKLLDKIRQTNVQGGEAGGITQQIGATYFPIDAIKAKTKVMAEYEKQTFDVPGLLVIDTPGHESFSNLRSRGSSLCNIAILVIDIMHGLEQQTIESIKLLRDRKAPFVVALNKIDRLYDWKAIPNNSFRDSFAKQSRAVQEEFQSRYSKIQLELAEQGLNSELYFQNKNMSKYVSIVPTSAVTGEGVPDLLWLLLELTQKRMSKQLMYLSHVEATILEVKVVEGFGTTIDVILSNGYLREGDRIVLCGMNGPIVTNIRALLTPQPLRELRLKSEYVHHKEVKAALGVKIAANDLEKAVSGSRLLVVGPEDDEDELMDDVMDDLTGLLDSVDTTGKGVVVQASTLGSLEALLDFLKDMKIPVMSIGLGPVYKRDVMKASTMLEKAPEYAVMLCFDVKVDKEAEQYAEQEGIKIFNADVIYHLFDSFTAYQEKLLEERRKDFLDYAIFPCVLQTLQIINKRGPMIIGVDVLEGTLRVGTPICAVKTDPTTKERQTLILGKVISLEINHQPVQEVKKGQTAAGVAVRLEDPSGQQPIWGRHVDENDTLYSLVSRRSIDTLKDKAFRDQVARSDWLLLKKLKVVFGIE
B9: Gas1 (protein, UniProt P22146 23-528)
chain: DDVPAIEVVGNKFFYSNNGSQFYIRGVAYQADTANETSGSTVNDPLANYESCSRDIPYLKKLNTNVIRVYAINTTLDHSECMKALNDADIYVIADLAAPATSINRDDPTWTVDLFNSYKTVVDTFANYTNVLGFFAGNEVTNNYTNTDASAFVKAAIRDVRQYISDKNYRKIPVGYSSNDDEDTRVKMTDYFACGDDDVKADFYGINMYEWCGKSDFKTSGYADRTAEFKNLSIPVFFSEYGCNEVTPRLFTEVEALYGSNMTDVWSGGIVYMYFEETNKYGLVSIDGNDVKTLDDFNNYSSEINKISPTSANTKSYSATTSDVACPATGKYWSAATELPPTPNGGLCSCMNAANSCVVSDDVDSDDYETLFNWICNEVDCSGISANGTAGKYGAYSFCTPKEQLSFVMNLYYEKSGGSKSDCSFSGSATLQTATTQASCSSALKEIGSMGTNSASGSVDLGSGTESSTASSNASGSSSKSNSGSSGSSSSSSSSSASSSSSSKKN

What follows are binders tested against T1, Dcp1-myc (S. cerevisiae) (UniProt Q12517) (assay: affinity purification with mass spectrometry; cells unstressed or glucose-depleted (10 min for Dcp1-myc, 60 min for Pbp1-myc), cross-linked with 0.8% formaldehyde; 20,000 g pellet of the lysate in Blob100 buffer (20 mM Tris-HCl pH 8, 100 mM NaCl, 1 mM MgCl2, 0.5% NP40) on anti-c-Myc magnetic beads, eluted with Myc peptide; label-free LC-MS/MS; hits are the proteins that cluster (Mfuzz) with the tagged bait across IP, pellet, supernatant, total and unbound fractions).
T1 sequence: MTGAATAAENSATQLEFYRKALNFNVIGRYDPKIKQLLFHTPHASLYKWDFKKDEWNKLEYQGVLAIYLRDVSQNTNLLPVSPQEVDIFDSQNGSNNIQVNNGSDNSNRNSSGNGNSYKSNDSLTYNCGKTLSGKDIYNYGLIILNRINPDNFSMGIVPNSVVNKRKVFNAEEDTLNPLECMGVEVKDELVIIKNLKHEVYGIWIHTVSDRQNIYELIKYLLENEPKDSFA

binding, binds:
B1
B2
B3
B4
B5
B6

The binders below were run against Pbp1-myc (S. cerevisiae) (UniProt P53297) in the same assay as above.

binding, binds:
B7
B8
B9

These are yes or no findings as the source states them, for the method shown. Binding seen in cells or lysates may run through a third protein. A yes stands for co-enrichment or nearness to the bait. Other partners may have been found. For part of these data: Sequences can lack the tags named with a protein.
